This test concerns HCoV-229E. The arrangement: species or system Huh-7; HTS, protection from HCoV-229E induced cell death, luminescent cell viability (CellCounting-Lite 2.0), inhibition rate. The conditions noted are these: 24 h post infection, 1 h compound pre-incubation, 10 µM, inhibitor.

Where a name gives a salt, the structure may show the parent alone. Read-outs that look alike come from different tables or passages of the source. Out of some 3,300 compounds screened, about 95 (3%) showed an effect of 50% or more. Some of the results follow.

For `Oc1cc(O)c2c(c1)O[C@@H](c1ccc(O)c(O)c1)[C@H](O)C2` [(-)-Catechin], the “229E Inhibition rate” value is listed as 19.1%.
As to `C[C@@]12C[C@H](c3ccoc3)O[C@@]13C[C@H](OC3=O)[C@H]1[C@H]2C[C@@H]2C[C@H]1C(=O)O2` [Diosbulbin B], the “229E Inhibition rate” value is 10%.
Take `COc1cc([C@@H]2c3cc4c(cc3[C@@H](O[C@@H]3O[C@@H]5CO[C@@H](C)O[C@H]5[C@H](O)[C@H]3O)[C@H]3COC(=O)[C@H]23)OCO4)cc(OC)c1O` [Etoposide]: the “229E Inhibition rate” value worked out at 10.3%.
With `C[C@@H]1O[C@@H](OC[C@H]2O[C@@H](Oc3c(-c4ccc(O)c(O)c4)oc4cc(O)cc(O)c4c3=O)[C@H](O)[C@@H](O)[C@@H]2O)[C@H](O)[C@H](O)[C@H]1O` [Rutin], the “229E Inhibition rate” value (229E Inhibition rate, 24 h) was determined as 21.7%.
Consider `NC(CCS)C(=O)O` (racemic) [DL-Homocysteine], for which the “229E Inhibition rate” value came out at 9.4%.
With `N[C@@H](Cc1c[nH]c2ccc(O)cc12)C(=O)O` [5-Hydroxytryptophan], the “229E Inhibition rate” value (229E Inhibition rate, 24 h) came to 13.7%.
As for `O=c1c(-c2ccc(O)cc2)coc2cc(O[C@@H]3O[C@H](CO)[C@@H](O)[C@H](O)[C@H]3O)ccc12` [Daidzin], the “229E Inhibition rate” value is on record as 20%.
For the compound `C=C1CC[C@@H]2[C@](C)(CO)[C@H](O)CC[C@@]2(C)[C@H]1C/C=C1\C=COC1=O` [Dehydroandrographolide], the “229E Inhibition rate” value is listed as 6.5%.
As for `NC(=O)NCCCC(N)C(=O)O` (stereo not drawn) [2-Amino-5-ureidopentanoic acid], the “229E Inhibition rate” value is reported as 11.5%.
On to `O=C(O)CC(C(=O)O)C(O)C(=O)O` (racemic) [DL-Isocitric acid (trisodium salt)], for which the “229E Inhibition rate” value was 13.8%.
Same read-out and setting: under `O=c1c(O)c(-c2ccc(O)cc2O)oc2cc(O)cc(O)c12` [Morin] stands 31.1%; under `OC[C@H]1O[C@@H](Oc2cc(O)cc(/C=C/c3ccc(O)cc3)c2)[C@H](O)[C@@H](O)[C@@H]1O` [Polydatin], 11.9%.
Still for that read-out and setting: as for `C/C=C1/CN2CCc3c([nH]c4ccccc34)[C@@H]2C[C@@H]1/C(=C/OC)C(=O)OC` [Geissoschizine methyl ether], the figure is 0%; as for `O=C(/C=C/c1ccccc1)OC[C@H]1O[C@@H](O[C@@H]2OC=C[C@H]3[C@H](O)[C@@H]4O[C@]4(CO)[C@@H]23)[C@H](O)[C@@H](O)[C@@H]1O` [Picroside I], 8.1%.
As to `CC(C)CCC[C@@H](C)[C@H]1CC[C@H]2C3=CC[C@H]4C[C@@H](O)CC[C@]4(C)[C@H]3CC[C@]12C` [Lathosterol], the “229E Inhibition rate” value came to 5.7%.
Consider `C[C@H]1O[C@@H](O[C@H]2CC[C@@]3(C)[C@@H](CC[C@]4(C)[C@@H]3C=CC3=C5CC(C)(C)CC[C@]5(CO)[C@@H](O)C[C@]34C)[C@]2(C)CO)[C@H](O)[C@@H](O[C@@H]2O[C@H](CO)[C@@H](O)[C@H](O)[C@H]2O)[C@H]1O` [Saikosaponin B1], for which the “229E Inhibition rate” value came out at 23.1%.
For the compound `CN1CC[C@]23c4ccccc4N[C@H]1[C@]21CCN(C)[C@H]3Nc2ccccc21` [Calycanthine], the “229E Inhibition rate” value was determined as 8.3%.
As for `CNc1ccc2oc(C[C@H]3O[C@@]4(CC[C@H]3C)O[C@H]([C@H](C)C(=O)c3ccc[nH]3)[C@H](C)C[C@H]4C)nc2c1C(=O)O` [Calcimycin], the “229E Inhibition rate” value is on record as 0%.
In the case of `C=C(C)[C@@H]1CC=C(CO)CC1` [(S)-(−)-Perillyl alcohol], the “229E Inhibition rate” value came to 9.9%.
For `COc1cc(-c2coc3cc(O[C@@H]4O[C@H](CO)[C@@H](O)[C@H](O)[C@H]4O)c(OC)c(O)c3c2=O)cc(O)c1OC` [Iridin], the “229E Inhibition rate” value is given as 0%.
`COc1cc2c(cc1O)CC[N+](C)(C)[C@@H]2Cc1ccc(O)cc1` [Lotusine (hydroxide)]: the “229E Inhibition rate” value is given as 0%.
Same read-out and setting: as for `COc1ccc2c(c[n+](C)c3c4cc5c(cc4ccc23)OCO5)c1OC` [Chelerythrine (chloride)], the figure is 3%.
In the case of `COC(=O)C1=CO[C@@H](O[C@@H]2O[C@H](CO)[C@@H](O)[C@H](O)[C@H]2O)[C@H]2[C@@H]1[C@H](O)C[C@]2(C)O` [Shanzhiside methyl ester], the “229E Inhibition rate” value is on record as 7%.
With `O[C@@H]1[C@@H](O)[C@@H]2OC[C@@H](O2)[C@H]1O` [Levoglucosan], the “229E Inhibition rate” value is 14.6%.
On to `Oc1cnc2c(O)cccc2c1` [Jineol], for which the “229E Inhibition rate” value was determined as 16.6%.
Regarding `CC(C)=CCC[C@H](C)[C@@H]1CC[C@]2(C)C3=C(CC[C@@]12C)[C@@]1(C)CC[C@H](O)C(C)(C)[C@@H]1CC3` [Tirucallol], the “229E Inhibition rate” value was 0%.
As to `COc1cc(C(C)=O)ccc1O[C@@H]1O[C@H](CO)[C@@H](O)[C@H](O)[C@H]1O` [Androsin], the “229E Inhibition rate” value is listed as 11.3%.
As to `C=C1C(=O)O[C@@H]2CC(C)=C([C@@H](C)CCCOC(C)=O)[C@@H](O)[C@H]12` [Inulicin], the “229E Inhibition rate” value turned out to be 16.6%.
Still for that read-out and setting: as for `C=CCc1ccc(OC)c(OC)c1` [Methyl Eugenol], the figure is 9.5%.
`CC(C)=CCC[C@@H](C)CCO` [(R)-Citronellol]: the “229E Inhibition rate” value was found to be 19.3%.
As for `CC(C)(O)[C@@H](O)COc1c2ccoc2cc2oc(=O)ccc12` [(-)-Oxypeucedanin hydrate], the “229E Inhibition rate” value stood at 12.8%.
On the same count and under the same terms, as for `Oc1ccc2ccc3cccc4ccc1c2c34` [1-Hydroxypyrene], the figure is 8.1%; as for `Cc1ccc(C(C)C)cc1O` [Carvacrol], 23.8%; as for `N[C@@H](CS(=O)(=O)O)C(=O)O` [L-Cysteic acid (monohydrate)], 10.5%.
On to `COc1ccc(-c2oc3c(CC=C(C)C)c(O[C@@H]4O[C@H](CO)[C@@H](O)[C@H](O)[C@H]4O)cc(O)c3c(=O)c2O[C@@H]2O[C@@H](C)[C@H](O)[C@@H](O)[C@H]2O[C@@H]2OC[C@@H](O)[C@H](O)[C@H]2O)cc1` [Epimedin B], for which the “229E Inhibition rate” value turned out to be 18.4%.
Same read-out and setting: under `COc1c(O)c(C)cc2c1C(=O)c1c(O)cccc1C2=O` [Obtusifolin] stands 20.3%; under `CCC(=O)c1c(O)cc(O)cc1O` [Flopropione], 21.5%.
Turning to `COc1ccc(CC(=O)O)cc1OC` [3,4-Dimethoxyphenylacetic acid], the “229E Inhibition rate” value is reported as 13.5%.
Regarding `COc1cc(/C=C/C(=O)NCCc2ccc(O)cc2)ccc1O` [N-trans-Feruloyltyramine], the “229E Inhibition rate” value was determined as 25.1%.
For `COc1cc(O)c2c(=O)cc(-c3ccc(O)c(O)c3)oc2c1` [Hydroxygenkwanin], the “229E Inhibition rate” value was 49.2%.
`O=c1cc(-c2ccc(O)cc2)oc2cccc(O)c12` [4',5-Dihydroxyflavone]: the “229E Inhibition rate” value is on record as 24.7%.
`CC(=O)N1C[C@H](O)C[C@H]1C(=O)O` [Oxaceprol]: the “229E Inhibition rate” value turned out to be 6.7%.
Take `COc1ccc2cc3[n+](cc2c1O)CCc1cc2c(cc1-3)OCO2` [Berberrubine (chloride)]: the “229E Inhibition rate” value is 17%.
Regarding `CC[C@H](CC[C@@H](C)[C@H]1CC[C@H]2[C@@H]3CC=C4C[C@@H](O)CC[C@]4(C)[C@H]3CC[C@]12C)C(C)C` [Beta-Sitosterol (purity>75%)], for the setting “229E Inhibition rate, 24 h”, the “229E Inhibition rate” value was 15%.
On to `O=C(O)C1=CCCNC1` [Guvacine hydrochloride], for which the “229E Inhibition rate” value was determined as 8.6%.
For the compound `C=C(CC[C@@H](C(=O)O)[C@H]1[C@H](O)C[C@@]2(C)C3=CC[C@H]4C(C)(C)[C@@H](O)CC[C@]4(C)C3=CC[C@]12C)C(C)C` [Dehydrotumulosic acid], the “229E Inhibition rate” value is given as 8.5%.
In the case of `COC(=O)CC[C@@H](C)[C@H]1CC[C@H]2[C@@H]3[C@H](O)C[C@@H]4C[C@H](O)CC[C@]4(C)[C@H]3C[C@H](O)[C@]12C` [Methyl cholate], the “229E Inhibition rate” value was determined as 54.9%.
For `CC(C)=CCC/C(C)=C/CC/C(C)=C/Cc1c(O)c2ccccc2oc1=O` [Ferulenol], the “229E Inhibition rate” value was found to be 4.4%.
On the same count and under the same terms, as for `COc1cc2cc(c1Cl)N(C)C(=O)C[C@H](OC(=O)[C@H](C)N(C)C(C)=O)[C@]1(C)O[C@H]1[C@H](C)[C@@H]1C[C@@](O)(NC(=O)O1)[C@H](OC)/C=C/C=C(\C)C2` [Maytansine], the figure is 10.2%.
Turning to `CC1=C(C=O)C(C)(C)C[C@H](O[C@@H]2O[C@H](CO)[C@@H](O)[C@H](O)[C@H]2O)C1` [Picrocrocin], the “229E Inhibition rate” value was 12.4%.
For the compound `CC1=C[C@]23C(=O)[C@@H](C=C(CO)[C@@H](O)[C@]2(O)[C@H]1O)[C@H]1[C@@H](C[C@H]3C)C1(C)C` [Ingenol], the “229E Inhibition rate” value was found to be 15.6%.
Regarding `O=C1c2ccccc2C(=O)c2c(O)ccc(O)c21` [Quinizarin], the “229E Inhibition rate” value turned out to be 0%.
With `CC1(C)CC[C@]2(C(=O)O)CC[C@]3(C)C(=CC[C@@H]4[C@@]5(C)CC[C@H](O)[C@@](C)(CO)[C@@H]5CC[C@]43C)[C@@H]2C1` [Hederagenin], the “229E Inhibition rate” value was 10.9%.
Take `COC(=O)c1c(O)cc(O)cc1O` [Methyl 2,4,6-trihydroxybenzoate]: the “229E Inhibition rate” value was found to be 38.1%.
Turning to `CC(C)=CCC/C(C)=C/CO` [Geraniol], the “229E Inhibition rate” value is given as 16.2%.
As to `COC(=O)c1c[nH]c2ccccc12` [Methyl indole-3-carboxylate], the “229E Inhibition rate” value worked out at 12%.
The same measure, in the same setting: under `CC(=O)c1c(O)cccc1O` [2,6-Dihydroxyacetophenone] stands 13.6%.
As to `CCOC(=O)/C=C/c1ccccc1` [Ethyl cinnamate], the “229E Inhibition rate” value is 4%.
As for `COc1ccc(/C=C/C(=O)O)cc1` [(E)-3-(4-Methoxyphenyl)acrylic acid], under “229E Inhibition rate, 24 h”, the “229E Inhibition rate” value came to 21.1%.
`CC1=C(CO)C(=O)O[C@@H]([C@@H](C)[C@H]2CC[C@H]3[C@@H]4C[C@H]5O[C@]56[C@@H](O)C=CC(=O)[C@]6(C)[C@H]4CC[C@]23C)C1` [Withaferin A]: the “229E Inhibition rate” value is listed as 1.5%.
For the compound `CC12CC3OC4O[C@H](CO)[C@@H](O)[C@H](O)[C@H]4OC34CC1C4(COC(=O)c1ccccc1)C(=O)O2` (stereo partly drawn) [Lactiflorin], the “229E Inhibition rate” value is 8.4%.
For the compound `COc1cc(CCC(=O)O)cc(OC)c1OC` [3-(3,4,5-Trimethoxyphenyl)propanoic acid], the “229E Inhibition rate” value was found to be 55.1%.
Still for that read-out and setting: under `COc1ccccc1/C=C/C=O` [2-Methoxycinnamaldehyde] stands 10.1%.

These data come from publication PMC12431657, “Discovery and mechanistic insights of dibenzoylmethane as a broad spectrum inhibitor of coronavirus” (PLOS Pathogens, 2025).
